Laboratory results as given in article PMC3906106.

Sequences of proteins named here, by UniProt entry; tags and fusion partners are left off. Residues count along the entry.
UniProt P07355, 2-339: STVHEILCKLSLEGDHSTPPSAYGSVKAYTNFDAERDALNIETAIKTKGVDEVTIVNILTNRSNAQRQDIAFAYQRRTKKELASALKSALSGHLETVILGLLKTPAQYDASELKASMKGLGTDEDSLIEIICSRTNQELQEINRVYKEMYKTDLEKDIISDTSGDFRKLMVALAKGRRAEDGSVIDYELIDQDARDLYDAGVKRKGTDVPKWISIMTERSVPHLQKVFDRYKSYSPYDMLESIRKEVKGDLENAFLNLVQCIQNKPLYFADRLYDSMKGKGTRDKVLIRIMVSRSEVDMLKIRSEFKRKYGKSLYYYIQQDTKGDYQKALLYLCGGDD

What was measured:
[1] = target: Annexin A2 (human (MCF-7 cells)) (UniProt P07355); test: pull-down from MCF-7 cells, LC-MS/MS; conditions: tRNA, ssDNA, polyinosine competitors, 1 mM Ca2+, 0.5 mM Mg2+, 2'-F pyrimidines (2'F-C, 2'F-U), pull-down: D-PBS with 1 mM Ca2+, 20 nM RNA, on ice, protein in an extract, label: 3'-biotin
[2] = target: Annexin A2 (human (MCF-7 cells)) (UniProt P07355); test: pull-down from MCF-7 cells, silver stain; conditions: tRNA, ssDNA, polyinosine competitors, 1 mM Ca2+, 0.5 mM Mg2+, 37 kD band not observed, 2'-F pyrimidines (2'F-C, 2'F-U), pull-down: D-PBS with 1 mM Ca2+, 20 nM RNA, on ice, protein in an extract, label: 3'-biotin

Sequence	binding result [1]	binding result [2]
GGGAGAUGAUCCGUUGAUGCGAGGGAACGCAAGAACUGAGGCCAUGAGGCGCCUUCCCUUGCUCAGGACGCAAGUCGUCGUUCGUAGGCAGAAUC [ACE4 3'-biotin]	binds	
GGGAGAUGAUCCGUUGAUGCGAGGAUCCCUACGACCUCGUAGCACACACAUAGGUGCACUCACCCGGCUGACCAAGUCGUCGUUCGUAGGCAGAAUC [Scramble sequence 3'-biotin]		no binding

At least one result comes from cells or an extract, where the contact may be indirect. For some assays here: A negative result means that nothing was seen under these conditions. For some assays here: The exact form of at least one protein or probe is not confirmed.
